# Assay results from PubChem BioAssay AID624297 (National Center for Advancing Translational Sciences (NCATS), 2012).
# The whole screen tested about 340,000 compounds, of which about 6,200 (1.8%) were called active. This list was built around the results that the source calls inconclusive (neither active nor inactive); the mix of calls is not that of the screen. Calls come from the whole dose curve; as a rule, active = well fitted activation curve with a large enough effect; inconclusive = small, poorly fitted or top-dose-only effect; inactive = no such curve, though single readings can be large or run the other way. Where the call is inconclusive, the potency comes from a doubtful curve fit.
# Test: A quantitative high throughput screen for small molecules that induce DNA re-replication in SW480 colon adenocarcinoma cells. For re-replication activation: % of control where 0% means no effect. Note: nearly all actives have a fitted effect of over 55% in size.
# Conditions: Hoechst DNA content imaging, 48 h; re-replication activation: at 46.1 µM (top of the series)
# In short: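 Per well, 250 cells were exposed to pinned compound for 48 hr. Nuclear DNA was visualised with Hoechst (40 min, 37 C) and total object intensity recorded by fluorescence scanning.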
# Potency is the fitted concentration of half-maximal effect.
SMILES,Potency,re-replication activation
CCN1C(=O)/C(=C/c2ccc(C)o2)N(C)C1=S,active: 18.4 µM,
O=C1c2ccccc2NC(c2ccc3c(c2)OCO3)N1O (centres undefined),"inconclusive: 18.4 µM [activator, partial curve, poor fit]",
COc1ccc(/C=C/C(=O)c2ccc(O)cc2)cc1,"inconclusive: 23.1 µM [activator, single point]",
Cc1cccc2c1NC(=O)C21N2CCCC2C(C(=O)c2ccc3ccccc3c2)C12C(=O)Nc1ccccc12 (centres undefined),"inconclusive: 20.6 µM [activator, single point]",
COc1ccc(Cl)cc1S(=O)(=O)N(C)CC(=O)N1CCOCC1,,inactive: -0.538%
O=C(CCCOc1ccccc1)N1CCc2ccccc2C1,,inactive: -10.9%
CCc1ccc(-c2cc(C(=O)O)c3ccccc3n2)s1,,inconclusive: 15.9% [activator]
Cc1cccc(OCc2n[nH]c(=S)n2C2CCCCC2)c1,,inactive: -5.9%
Cc1ccc(S(=O)(=O)Cc2ccc(C(=O)N3CCC(C)CC3)cc2)cc1,"inconclusive: 23.1 µM [activator, single point]",
CC(C)(Oc1ccc(Cl)cc1)C(=O)NCC(c1ccco1)N1CCCCC1 (centres undefined),,inactive: 6.1%
O=C(CSC1=Nc2ccccc2C2CC=NN12)Nc1ccc2c(c1)OCO2 (centres undefined),"inconclusive: 29.1 µM [activator, single point]",
CC(C)(C)OC(=O)N1CCC(c2c(C(=O)NCC3CCN(C4CCCC4)C3)cnn2-c2cccc(Cl)c2)CC1 (centres undefined),"inconclusive: 20.6 µM [activator, single point]",
C=CCN(CC=C)S(=O)(=O)c1ccc2nc(NC(=O)C3CCCO3)sc2c1 (centres undefined),"inconclusive: 0.231 µM [activator, full curve, poor fit]",
NC(=O)/C(=C/c1cccnc1)NC(=O)c1ccccc1,,inactive: 78.2%
c1ccc(C2CN3CCSC3=N2)cc1 (centres undefined),inactive,
C=CCOc1ccc(/C=C/C(=O)OCC(=O)NCc2cccc(OC)c2)cc1,,inactive: 8.64%
N=c1n(CCN2CCCCC2)c2ccccc2n1CC(O)c1cccc(Br)c1 (centres undefined),"inconclusive: 29.1 µM [activator, single point]",
CCC(=O)NCCc1nc2cc(NC(=O)c3ccc(Cl)cc3)ccc2n1C,,inactive: -1.84%
S=C(NCc1ccc(Cl)cc1)NN1CCOCC1,,inactive: -0.0602%
COc1cc(N/N=C/c2ccccc2O)ncn1,"inconclusive: 3.66 µM [activator, full curve, poor fit]",
COc1cc(/C=C2\SC(=S)N(CCC(=O)Nc3ccc(O)cc3)C2=O)cc(OC)c1OC,"inconclusive: 29.1 µM [activator, single point]",
CCNc1ccc(C(=O)OCC(=O)Nc2cc(C)on2)cc1[N+](=O)[O-],,inactive: 2.92%
CN1CCC(OC(c2ccccc2)c2ccc(Cl)cc2)C1 (centres undefined),"inconclusive: 29.1 µM [activator, single point]",
O=C(NCc1ccco1)/C(=C/c1cccc(C(F)(F)F)c1)c1nc2ccccc2[nH]1,"inconclusive: 16.4 µM [activator, single point]",
O=C1C2CCCCC2C(=O)N1c1ccc(NC2CCCCC2)c([N+](=O)[O-])c1 (centres undefined),,inactive: -3.39%

# Exported tab-delimited: 2 of the compounds above
SMILES	Potency	re-replication activation
C=CCN(CC=C)S(=O)(=O)c1ccc2nc(NC(=O)C3CCCO3)sc2c1 (centres undefined)	inconclusive: 0.231 µM [activator, full curve, poor fit]	
NC(=O)/C(=C/c1cccnc1)NC(=O)c1ccccc1		inactive: 78.2%

# (continued)

SMILES,Potency,re-replication activation
CCCCn1c(N)c(N(CC(C)C)C(=O)Cc2ccc(S(=O)(=O)N3CCOCC3)s2)c(=O)[nH]c1=O,,inactive: -5.12%
CCOc1cc(NC(=S)Nc2cccc(OC)c2)c(OCC)cc1NC(=O)c1ccc(C)cc1,"inconclusive: 14.6 µM [activator, single point]",
CC(C)CN1C(=O)/C(=C(/C#N)C(=O)NC2CCCCC2)c2ccccc21,"inconclusive: 20.6 µM [activator, single point]",
C=C1C(=O)O[C@H]2C[C@H]1[C@@H](OC(C)=O)C/C(C)=C/CC/C(C)=C\CC[C@]2(C)O,active: 23.1 µM,
NC1=NC(=O)C(Cc2ccc(OC(F)(F)F)cc2)S1 (centres undefined),,inactive: -4.02%
CCN1C(=NCc2cccc(Cl)c2)N[C@@H](c2cccc(F)c2)C(C(=O)OC)=C1C,"inconclusive: 23.1 µM [activator, partial curve, poor fit]",
Cc1csc(NC(=O)c2cc(-c3ccccc3)nc3ccccc23)n1,,inactive: -47.3%
O=C(NC1CCOCC1)C1CCC(=O)N(Cc2ccc(Cl)cc2)C1 (centres undefined),active: 9.2 µM,
COc1cccc(NS(=O)(=O)c2ccc(S(=O)(=O)N3CCOCC3)cc2)c1,,inactive: -4.17%
Cc1sc(NC(=O)c2ccco2)c(C(c2ccccc2)N2CCC(C)CC2)c1C (centres undefined),"inconclusive: 20.6 µM [activator, single point]",
COc1cccc(-c2cn3nc4c(nc3n2)CCCC4)c1,"inconclusive: 18.4 µM [activator, partial curve, poor fit]",
CCc1nn(CC(=O)NCCC2=CCCCC2)c(=O)c2cc3cc(F)ccc3n12,"inconclusive: 29.1 µM [activator, single point]",
O=C(O)/C=C/C(=O)OC1CC2CCC1C2 (centres undefined),"inconclusive: 16.4 µM [activator, single point]",
COc1ccc2nc(SCC(=O)NC3CCCC3)c(C)cc2c1,"inconclusive: 29.1 µM [activator, single point]",
COCCN1CCCC(CNCc2cn(C)nc2-c2ccc(Oc3ccccc3)cc2)C1 (centres undefined),"inconclusive: 16.4 µM [activator, single point]",
Cc1cc(=O)oc(C)c1C(=O)OC(C(=O)c1ccccc1)c1ccccc1 (centres undefined),,inactive: 3.73%
CCCCc1ccc(NC(=S)NCCc2ccc(F)cc2)cc1,"inconclusive: 0.259 µM [activator, full curve, poor fit]",
CC(C)c1ccc(NC(=O)CCNC(=O)N2CC(=O)Nc3ccccc32)cc1,"inconclusive: 29.1 µM [activator, single point]",
O=C(c1cc2nc(-c3ccccc3)cc(-c3ccccc3)n2n1)N1CCCC1,"inconclusive: 16.4 µM [activator, single point]",
O=S(=O)(c1ccc(Cl)cc1)N1CCN(Cc2ccc(O)c3ncccc23)CC1,"inconclusive: 20.6 µM [activator, single point]",
COc1cc([N+](=O)[O-])cc(/C=N/NC(=O)c2cc(C)nc3ccccc23)c1O,"inconclusive: 29.1 µM [activator, single point]",
COCc1cc(CN2CCCC(C(=O)Nc3ccc(-c4ccco4)cc3)C2)ccc1OC (centres undefined),active: 23.1 µM,
CC(C)c1ccc(/C=C/C(=O)Nc2ccc(CN3CCOCC3)cc2)cc1,"inconclusive: 6.51 µM [activator, single point]",
Cc1ccc(-c2cc(-c3ccc(F)cc3)nc(N)c2C#N)o1,active: 11.6 µM,
C=CCN1C=C(C(=O)c2ccccc2)C(=O)CC1,,inactive: -47.2%

SMILES,Potency,re-replication activation
Cc1ccc(S(=O)(=O)N2CCN(C(=O)COC(=O)CCOc3ccc(C(C)(C)C)cc3)CC2)cc1,active: 18.4 µM,
Cc1ccc(S(=O)(=O)NC(=O)NC2CCCC2)cc1,,inactive: -1.62%
COCCCNC(=O)/C(C#N)=C/c1c(N2CCN(c3ccccc3)CC2)nc2ccccn2c1=O,active: 9.2 µM,
Cc1nnnn1/C(=C\c1ccccc1)C(=O)OCC(=O)Nc1ccc(Cl)cc1F,"inconclusive: 20.6 µM [activator, single point]",
O=C(CN1CCOCC1)N/N=C/c1ccco1,"inconclusive: 0.0082 µM [activator, full curve, poor fit]",
O=C(Nc1cc(C(=O)N2CCN(c3ccccc3O)CC2)ccc1Cl)c1cccs1,"inconclusive: 23.1 µM [activator, partial curve, poor fit]",
Cc1cccc(N2CCN(C(=O)c3ccc4ccccc4c3)CC2C)c1 (centres undefined),,inactive: 10.9%
Cc1ccc(S(=O)(=O)CCSc2nc(C)cc(C(F)(F)F)c2C#N)cc1,"inconclusive: 29.1 µM [activator, single point]",
COc1ccccc1CNC(=O)CN1C(=O)NC2(CCCC2)C1=O,,inactive: -48.9%
Cc1cccc(N2CCN(Cc3ccoc3)CC2)c1C,"inconclusive: 25.9 µM [activator, single point]",
COc1ccccc1NC(=O)CN1CCN(C2c3ccccc3-c3ccccc32)CC1,"inconclusive: 23.1 µM [activator, single point]",
O=C(N[C@@H](Cc1ccccc1)C(=O)CCl)OCc1ccccc1,"inconclusive: 0.58 µM [activator, partial curve, poor fit]",
COc1ccc(/C=C2\N=C(c3ccccc3Cl)NC2=O)cc1,active: 10.3 µM,
CCCn1c(NC(=O)CCS(=O)(=O)c2ccc(C)cc2)nc2ccccc21,"inconclusive: 16.4 µM [activator, partial curve]",
COc1ccc(-n2nc(C(=O)NCC(=O)N3CCCC3)c3ccccc3c2=O)cc1Cl,,inactive: -2.35%
CCCCSc1cnn(-c2ccccc2)c(=O)c1SCCCC,"inconclusive: 20.6 µM [activator, single point]",
Cc1ccc(C(=O)Nc2ccncc2)c(C)c1,,inactive: -2.59%
Nc1nc(-c2ccc(C(=O)O)cc2)cs1,,inactive: 0.169%
Cc1ccc(Sc2ccc(N)cc2C#N)cc1,,inactive: -1.29%
Cc1cc(Nc2ccccc2)nc(NCc2ccccc2)n1,"inconclusive: 20.6 µM [activator, partial curve, poor fit]",
CC(NC(=O)CCl)c1ccc(Cl)c(Cl)c1 (centres undefined),"inconclusive: 20.6 µM [activator, single point]",
O=C(N/N=C/c1ccccn1)c1ccc(N/N=C/c2ccccn2)cc1,,inactive: -5.09%
O=C(OCC(=O)N1CCOCC1)C(c1ccccc1)c1ccccc1,"inconclusive: 14.6 µM [activator, partial curve, poor fit]",
Cc1ccc(Cn2c(C(CO)Nc3nc(-c4ccc(F)cc4)cs3)nc3ccccc32)cc1 (centres undefined),,inactive: 17.6%

# 4 compounds drawn at random from those above:
SMILES,Potency,re-replication activation
COCCCNC(=O)/C(C#N)=C/c1c(N2CCN(c3ccccc3)CC2)nc2ccccn2c1=O,active: 9.2 µM,
Cc1ccc(S(=O)(=O)CCSc2nc(C)cc(C(F)(F)F)c2C#N)cc1,"inconclusive: 29.1 µM [activator, single point]",
O=C(N/N=C/c1ccccn1)c1ccc(N/N=C/c2ccccn2)cc1,,inactive: -5.09%
Cc1ccc(S(=O)(=O)NC(=O)NC2CCCC2)cc1,,inactive: -1.62%
